Experimental data taken from PMC7819943, “Rice protein-binding microarrays: a tool to detect cis-acting elements near promoter regions in rice”.
Some of the results follow.

Sequences of proteins named here, by UniProt entry; tags and fusion partners are left off.
UniProt Q0JBA9, entry or part of it: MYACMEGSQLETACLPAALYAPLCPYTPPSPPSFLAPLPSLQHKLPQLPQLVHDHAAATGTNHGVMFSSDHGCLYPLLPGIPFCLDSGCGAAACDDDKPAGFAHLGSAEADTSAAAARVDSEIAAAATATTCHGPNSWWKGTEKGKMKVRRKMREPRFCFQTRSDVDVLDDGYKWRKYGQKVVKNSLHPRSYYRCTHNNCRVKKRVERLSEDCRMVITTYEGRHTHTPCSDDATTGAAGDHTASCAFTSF

Target: OsWRKY34 (Oryza sativa, UniProt Q0JBA9 1-250)
Test: protein-binding microarray (RPBM); PBS, 2% BSA, 51.3 ng/ul salmon testes DNA, 50 uM zinc acetate, 200 nM TF, 25 C, 1 h; high values mean tight binding
Details: protein: recombinant; tags: N-terminal polyhistidine and DsRed monomer fusion (pET32a); label: CyDye5-dUTP incorporated in the synthesized complementary strand; 3' TTTTT single-stranded linker to array surface; dsDNA, one strand shown
Procedure, shortened: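 For the binding signal, per-feature fluorescence intensity was read in arbitrary units on an Axon 4000B scanner. Before scanning, a 2% BSA-blocked custom Agilent array made double-stranded with Cy5-dUTP was washed after 1 h at 25 °C with 200 nM protein and 50 µM zinc acetate. The proteins were Ni–NTA-purified transcription factors with N-terminal polyhistidine and DsRed fusions, expressed in E. coli BL21-CodonPlus.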

| Sequence | binding signal |
| --- | --- |
| AATCGTCACACATATGCGCTCGGATTTTTTTCTTTCTAACCGGAGTCACCTAGTGCAG | 10200 fluorescence intensity (a.u.) |
| TCTATCTTTGACTTGGAAGACAGCTCACTAATACTACCTTCGGAGTCACCTAGTGCAG | 9400 fluorescence intensity (a.u.) |
| TTCCCAATATTAATTTGTCCGTTATGATTTCTGTTGCGTTCGGAGTCACCTAGTGCAG | 11600 fluorescence intensity (a.u.) |
| GTCGGGTTGCCACACCTCTTCGACTTGCACAACATCGATCCGGAGTCACCTAGTGCAG | 9350 fluorescence intensity (a.u.) |
| AAGAACCCACCACCTCCGCCGCCTCCGCTTCCGCCGCCGGCGGAGTCACCTAGTGCAG | 11500 fluorescence intensity (a.u.) |
| TTATCATTTTTTCTTATTTACTCTCTTCGTTCTATATTAACGGAGTCACCTAGTGCAG | 11000 fluorescence intensity (a.u.) |
| TACCTGGGCTGTTCTTGTTGCTTAGTTGGGTTAGATTATTCGGAGTCACCTAGTGCAG | 10000 fluorescence intensity (a.u.) |
| TTTTCTCCTTTCGCGTTGCGTCCGCGATCCGATCGATCGACGGAGTCACCTAGTGCAG | 9560 fluorescence intensity (a.u.) |
| TCAAGATGATATGGGTCGCCCCTTCTTTTTGCGCCAAAGACGGAGTCACCTAGTGCAG | 9020 fluorescence intensity (a.u.) |
| AGTTTTTGCTTGTAACGTTTCACCACTCGTCTTATTCAAACGGAGTCACCTAGTGCAG | 8340 fluorescence intensity (a.u.) |
| CTTCGATTCTGTGAGTTTATATTTGATTTTCTGTCTTTTCCGGAGTCACCTAGTGCAG | 8610 fluorescence intensity (a.u.) |
| GATACTGTAATTACCACTGTGTATTTTGTTTTGTTTGTGTCGGAGTCACCTAGTGCAG | 14800 fluorescence intensity (a.u.) |
| ACACTCACCGACGCGTGGGCCCCAATCACTCCCGCACATCCGGAGTCACCTAGTGCAG | 10100 fluorescence intensity (a.u.) |
| TTATTAAGTTTGTTTCGTGTAAATTTTTTTTTCTTAGAATCGGAGTCACCTAGTGCAG | 8240 fluorescence intensity (a.u.) |
| ATTTTTTCTTCATTTTTCATTCCGTTGAGATCAGCACTTTCGGAGTCACCTAGTGCAG | 8300 fluorescence intensity (a.u.) |
| CCCCACTTGCTCCACCATAGCCTTTTAGCCTCTCTTCTTTCGGAGTCACCTAGTGCAG | 9790 fluorescence intensity (a.u.) |
| CGCCCAAGCTAGCTAGTGGCCATTATCCCATGGATATTTCCGGAGTCACCTAGTGCAG | 8280 fluorescence intensity (a.u.) |
| ATAAAAACCTCGCGATTTCTCTCTCTCTCTCTCCCGTCTCCGGAGTCACCTAGTGCAG | 8130 fluorescence intensity (a.u.) |
| TCTTCCCATCCGTCCACTTCCACAATGCGGCGCCTCCTCGCGGAGTCACCTAGTGCAG | 12000 fluorescence intensity (a.u.) |
| GGGCCGAACATAGGGTGGGTGCAGATGATGTCGAACTCCTCGGAGTCACCTAGTGCAG | 9560 fluorescence intensity (a.u.) |
| GTCTTATCCGATTTTAGGTTATTTTTTTCTTTTAAATTTGCGGAGTCACCTAGTGCAG | 8370 fluorescence intensity (a.u.) |
| AAACATACTGCCTCACCAGTCACAAATTGTAAACATACTACGGAGTCACCTAGTGCAG | 8160 fluorescence intensity (a.u.) |
| TTTTAGGGTGGGCTAAACAGGCCTATATTGATGTGTAATTCGGAGTCACCTAGTGCAG | 11000 fluorescence intensity (a.u.) |

2 entries drawn at random from those above, as already listed:

| Sequence | binding signal |
| --- | --- |
| AAACATACTGCCTCACCAGTCACAAATTGTAAACATACTACGGAGTCACCTAGTGCAG | 8160 fluorescence intensity (a.u.) |
| ATTTTTTCTTCATTTTTCATTCCGTTGAGATCAGCACTTTCGGAGTCACCTAGTGCAG | 8300 fluorescence intensity (a.u.) |
